# According to publication PMC3834253, “Attenuation of VEGFR-2 Expression by sFlt-1 and Low Oxygen in Human Placenta” (PLoS ONE, 2013):
# By UniProt entry, the sequences of proteins in these tests, tags left out. Residues count along the entry.
# UniProt P35968, residues 20-1356: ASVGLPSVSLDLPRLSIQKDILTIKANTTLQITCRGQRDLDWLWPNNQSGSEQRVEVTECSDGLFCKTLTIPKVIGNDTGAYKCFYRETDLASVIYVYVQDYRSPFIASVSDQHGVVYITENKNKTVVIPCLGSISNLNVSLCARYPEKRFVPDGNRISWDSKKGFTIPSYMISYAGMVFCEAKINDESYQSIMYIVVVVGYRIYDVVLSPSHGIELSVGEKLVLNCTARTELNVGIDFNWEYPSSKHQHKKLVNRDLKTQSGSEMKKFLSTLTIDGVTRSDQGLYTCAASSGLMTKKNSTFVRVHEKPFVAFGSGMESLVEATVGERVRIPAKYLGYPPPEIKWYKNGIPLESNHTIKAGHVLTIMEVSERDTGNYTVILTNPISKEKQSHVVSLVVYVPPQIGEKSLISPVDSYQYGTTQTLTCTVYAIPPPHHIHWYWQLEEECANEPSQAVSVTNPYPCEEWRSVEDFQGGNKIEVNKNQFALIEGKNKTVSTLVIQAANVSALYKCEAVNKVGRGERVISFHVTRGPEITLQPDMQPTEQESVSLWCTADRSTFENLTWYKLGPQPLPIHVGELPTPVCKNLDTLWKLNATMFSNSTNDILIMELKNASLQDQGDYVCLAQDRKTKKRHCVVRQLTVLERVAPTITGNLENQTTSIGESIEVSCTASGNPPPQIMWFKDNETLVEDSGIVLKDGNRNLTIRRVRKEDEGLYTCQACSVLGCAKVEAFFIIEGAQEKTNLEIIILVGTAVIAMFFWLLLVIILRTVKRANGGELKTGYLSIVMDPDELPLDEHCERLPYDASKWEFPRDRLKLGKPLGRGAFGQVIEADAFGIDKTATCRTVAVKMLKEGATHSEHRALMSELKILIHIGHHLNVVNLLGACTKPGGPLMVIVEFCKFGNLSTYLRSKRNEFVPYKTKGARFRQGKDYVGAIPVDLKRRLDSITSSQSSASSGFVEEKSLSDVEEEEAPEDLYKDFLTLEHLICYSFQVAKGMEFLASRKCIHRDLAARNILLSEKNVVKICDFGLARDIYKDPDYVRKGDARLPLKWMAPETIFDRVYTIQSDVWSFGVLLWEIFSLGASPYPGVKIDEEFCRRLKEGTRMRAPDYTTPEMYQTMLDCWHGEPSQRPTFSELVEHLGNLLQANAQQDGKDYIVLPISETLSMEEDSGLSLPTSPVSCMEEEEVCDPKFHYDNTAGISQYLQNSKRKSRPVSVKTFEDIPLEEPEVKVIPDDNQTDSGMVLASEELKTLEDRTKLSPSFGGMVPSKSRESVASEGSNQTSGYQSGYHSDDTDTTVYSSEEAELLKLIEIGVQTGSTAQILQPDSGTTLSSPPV
# Results are given in words; binding and its absence hold for the method and conditions named. In cells and extracts the contact can be indirect. Some entries that bind do so weakly or less than the wild type.
# B1: soluble VEGF receptor-1 (sFlt-1), 105 kDa species (sFlt-13) (natural protein, human (endogenous in placenta), UniProt P17948-2 27-687, looked up)
# chain: SKLKDPELSLKGTQHIMQAGQTLHLQCRGEAAHKWSLPEMVSKESERLSITKSACGRNGKQFCSTLTLNTAQANHTGFYSCKYLAVPTSKKKETESAIYIFISDTGRPFVEMYSEIPEIIHMTEGRELVIPCRVTSPNITVTLKKFPLDTLIPDGKRIIWDSRKGFIISNATYKEIGLLTCEATVNGHLYKTNYLTHRQTNTIIDVQISTPRPVKLLRGHTLVLNCTATTPLNTRVQMTWSYPDEKNKRASVRRRIDQSNSHANIFYSVLTIDKMQNKDKGLYTCRVRSGPSFKSVNTSVHIYDKAFITVKHRKQQVLETVAGKRSYRLSMKVKAFPSPEVVWLKDGLPATEKSARYLTRGYSLIIKDVTEEDAGNYTILLSIKQSNVFKNLTATLIVNVKPQIYEKAVSSFPDPALYPLGSRQILTCTAYGIPQPTIKWFWHPCNHNHSEARCDFCSNNEESFILDADSNMGNRIESITQRMAIIEGKNKMASTLVVADSRISGIYICIASNKVGTVGRNISFYITDVPNGFHVNLEKMPTEGEDLKLSCTVNKFLYRDVTWILLRTVNNRTMHYSISKQKMAITKEHSITLNLTIMNVSLQDSGTYACRARNVYTGEEILQKKEITIRGEHCNKKAVFSRISKFKSTRNDCTTQSNVKH
# notes: sFlt-1, truncated soluble splice variant of VEGFR-1 (six extracellular IgG like domains with a unique C-terminus), human; isoform assigned by the authors from the band size; Detected by blot with an sFlt-1 antibody (AF321, R&D Systems) in VEGFR-2 immunoprecipitates; also called soluble VEGFR-1; source: endogenous, human placental tissue lysate
# Assays:
# [1] = biological target: Vascular endothelial growth factor receptor 2 (VEGFR-2) (human (endogenous in placenta)) (UniProt P35968); assay: co-IP; human placental tissue lysates (8, 12 and 35 weeks of gestation; preeclamptic placentae), 500 ug protein, precleared with Protein-A Agarose, precipitated with 1 ug monoclonal VEGFR-2 antibody overnight at 4 C, washed 3 times in ice cold RIPA buffer, blotted for sFlt-1
# [2] = biological target: Vascular endothelial growth factor receptor 2 (VEGFR-2) (human (endogenous in placenta)) (UniProt P35968); assay: co-IP; age-matched preterm control (PTC) placental lysates, 500 ug protein, precipitated with monoclonal VEGFR-2 antibody overnight at 4 C, washed in RIPA buffer, blotted for sFlt-1
binder,measurement,setting,value
B1,binding,[1],binds
same,binding,[2],binds weakly
